The source of these data is US6472152B1 (priority 1998, dated 2002).

The data set relates to Salmonella typhimurium TA104 pr1.

Consider `O=C1OCCN1/N=C/c1ccc([N+](=O)[O-])o1` [Furazolidone], for which the “Toxic (pri)” value is “−”.
